Our source for the binding values is publication PMC4567819.

Protein sequences, listed by entry. Tags and fused reporters are not part of them.
UniProt O95863: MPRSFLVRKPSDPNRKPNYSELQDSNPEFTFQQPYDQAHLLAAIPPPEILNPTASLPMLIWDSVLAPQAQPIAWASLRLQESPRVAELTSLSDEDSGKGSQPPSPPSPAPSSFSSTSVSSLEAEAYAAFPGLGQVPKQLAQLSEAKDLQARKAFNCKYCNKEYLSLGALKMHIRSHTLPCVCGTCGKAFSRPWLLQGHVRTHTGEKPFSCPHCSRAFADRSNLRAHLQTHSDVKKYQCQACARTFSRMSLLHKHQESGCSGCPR
UniProt P28482: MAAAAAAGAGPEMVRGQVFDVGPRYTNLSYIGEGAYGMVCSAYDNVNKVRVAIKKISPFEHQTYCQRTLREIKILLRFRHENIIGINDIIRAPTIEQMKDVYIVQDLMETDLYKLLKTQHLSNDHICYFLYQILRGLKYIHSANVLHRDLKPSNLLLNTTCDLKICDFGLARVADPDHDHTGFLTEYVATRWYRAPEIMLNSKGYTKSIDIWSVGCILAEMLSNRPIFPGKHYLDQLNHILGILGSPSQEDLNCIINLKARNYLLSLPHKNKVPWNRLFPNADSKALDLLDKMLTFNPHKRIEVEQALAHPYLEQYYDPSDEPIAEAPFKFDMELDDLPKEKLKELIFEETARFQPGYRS

These are yes or no findings as the source states them, for the method shown. In cells and extracts the contact can be indirect. Some entries that bind do so weakly or less than the wild type.

The assay deals with SNAIL1 (human (endogenous in MHCC-97H)) (UniProt O95863). Briefly: co-IP; total lysate of MHCC-97H cells, precleared with protein A/G-agarose, primary antibodies against SNAIL1, ERK2 or IgG, overnight at 4 °C, immunoblotting (Fig. 6c). A general note: Immunoblotting shows a protein as a band on a membrane.

Take “ERK2 (from UniProt P28482 1-360) (enzyme)”: the binding entry was “binds”.
